Data: the supplement of paper PMC4604168 (melanoma cell lines)
Some of the results follow. Single values are uncertain, as repeats are few or missing.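 The apoptosis fraction was the count of cleaved-PARP antibody-stained nuclei relative to all DNA-stained nuclei, imaged in 1,536-well plates. Screening doses were set so most cells survived, and baseline and induced cleaved-PARP levels vary greatly across cell lines.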

Key:
Experiment in all cases: cleaved PARP positive nuclei fraction relative to DMSO control; melanoma cells; higher = more apoptosis
Conditions in all cases: library dose: low library concentration; 72 h
[1] = tested on: MZ2-MEL
[2] = tested on: MeWo
[3] = tested on: RPMI7951
[4] = tested on: RVH-421
[5] = tested on: SkMel28
[6] = tested on: SkMel2
[7] = tested on: SkMel30
[8] = tested on: SkMel5
[9] = tested on: UACC257
[10] = tested on: UACC62
[11] = tested on: WM115
[12] = tested on: WM1716
[13] = tested on: WM1745
[14] = tested on: WM3526
[15] = tested on: WM3619
[16] = tested on: WM451Lu

| Structure (SMILES) | cleaved PARP positive nuclei fraction [1] | cleaved PARP positive nuclei fraction [2] | cleaved PARP positive nuclei fraction [3] | cleaved PARP positive nuclei fraction [4] | cleaved PARP positive nuclei fraction [5] | cleaved PARP positive nuclei fraction [6] | cleaved PARP positive nuclei fraction [7] | cleaved PARP positive nuclei fraction [8] | cleaved PARP positive nuclei fraction [9] | cleaved PARP positive nuclei fraction [10] | cleaved PARP positive nuclei fraction [11] | cleaved PARP positive nuclei fraction [12] | cleaved PARP positive nuclei fraction [13] | cleaved PARP positive nuclei fraction [14] | cleaved PARP positive nuclei fraction [15] | cleaved PARP positive nuclei fraction [16] |
| --- | --- | --- | --- | --- | --- | --- | --- | --- | --- | --- | --- | --- | --- | --- | --- | --- |
| Cn1c(=O)n(-c2ccc(C(C)(C)C#N)cc2)c2c3cc(-c4cnc5ccccc5c4)ccc3ncc21 + COc1ccc2c(c1)CCC1C2CCC2(C)C(NCCCCCCN3C(=O)C=CC3=O)CCC12 [U73122] (first compound 0.004 µM, partner dose 0.4 µM) | 115% | 141% | 33.7% | 130% | 43.6% | 83% | 98.7% | 161% | 77% | 165% | 75.8% | 263% | 104% | 83.6% | 87.3% | 43.5% |
| CN1CCN(c2ccc3nc(-c4c(N)c5c(F)cccc5[nH]c4=O)[nH]c3c2)CC1 [Dovitinib] + CC(C)CCN1c2nc(Nc3cc(F)c(O)c(F)c3)ncc2N(C)C(=O)C1C [BID1870] (first compound 0.1 µM, partner dose 0.2 µM) | 116% | 47.4% | 66.3% | 106% | 54.5% | 164% | 110% | 141% | 40.3% | 131% | 286% | 171% | 107% | 76.4% | 90.6% | 103% |
| C=C(c1ccc(C(=O)O)cc1)c1cc2c(cc1C)C(C)(C)CCC2(C)C [Bexarotene] + COc1ccc2c(c1)CCC1C2CCC2(C)C(NCCCCCCN3C(=O)C=CC3=O)CCC12 [U73122] (first compound 2 µM, partner dose 0.4 µM) | 124% | 128% | 695% | 62.8% | 171% | 67.3% | 75.2% | 163% | 127% | 140% | 56.9% | 133% | 83.8% | 76.6% | 91.3% | 44.2% |
| Cc1cc(Nc2cc(N3CCN(C)CC3)nc(/C=C/c3ccccc3)n2)n[nH]1 + CO[C@@H]1[C@H](N(C)C(=O)c2ccccc2)C[C@H]2O[C@]1(C)n1c3ccccc3c3c4c(c5c6ccccc6n2c5c31)C(=O)NC4 [Midostaurin] (first compound 0.04 µM, partner dose 0.08 µM) | 115% | 242% | 113% | 151% | 67.8% | 69.7% | 260% | 77.8% | 18.3% | 29.1% | 58.2% | 167% | 119% | 55.4% | 107% | 33.2% |
| CCCS(=O)(=O)Nc1ccc(F)c(C(=O)c2c[nH]c3ncc(Cl)cc23)c1F + CC(C)CCN1c2nc(Nc3cc(F)c(O)c(F)c3)ncc2N(C)C(=O)C1C [BID1870] (first compound 0.08 µM, partner dose 0.2 µM) | 108% | 50.6% | 85.2% | 34% | 103% | 139% | 30% | 63.7% | 118% | 204% | 136% | 34.2% | 87.1% | 287% | 86.3% | 28.4% |
| CNC(=O)c1cc(Oc2ccc(NC(=O)Nc3ccc(Cl)c(C(F)(F)F)c3)cc2)ccn1 [sorafenib] + COc1ccc(COc2ccc(Cc3cnc(N)nc3N)cc2OC)cc1 [GW2580] (first compound 0.4 µM, partner dose 1 µM) | 89% | 23.1% | 139% | 116% | 128% | 144% | 124% | 92.9% | 144% | 130% | 66.3% | 106% | 87.5% | 69.7% | 96.6% | 64.3% |
| O=C(O)c1ccc2c(c1)nc(Nc1cccc(Cl)c1)c1ccncc12 + CN(C)S(=O)(=O)c1ccc2c(c1)/C(=C/c1cc3c([nH]1)CCCC3)C(=O)N2 [SU6656] (first compound 0.4 µM, partner dose 0.4 µM) | 177% | 121% | 96.8% | 49.1% | 781% | 49.5% | 69% | 82.9% | 40.2% | 76.6% | 332% | 103% | 122% | 465% | 93.9% | 85.7% |
| CNC(=O)c1cc(Oc2ccc(NC(=O)Nc3ccc(Cl)c(C(F)(F)F)c3)cc2)ccn1 [sorafenib] + CC(C)(C)c1cnc(CSc2cnc(NC(=O)C3CCNCC3)s2)o1 [SNS-032] (first compound 0.4 µM, partner dose 0.01 µM) | 92.6% | 69.9% | 77.6% | 108% | 29.8% | 179% | 130% | 89.1% | 46.4% | 55% | 131% | 110% | 100% | 120% | 115% | 111% |
| Cc1cc(Nc2cc(N3CCN(C)CC3)nc(/C=C/c3ccccc3)n2)n[nH]1 + Cc1cc([N+](=O)[O-])ccc1NS(=O)(=O)c1cc(Cl)ccc1Cl [FH535] (first compound 0.04 µM, partner dose 1 µM) | 106% | 65.3% | 71.7% | 111% | 204% | 112% | 23.7% | 83.3% | 84.1% | 150% | 130% | 170% | 99.8% | 162% | 84.4% | 341% |
| Nc1nc(F)nc2c1ncn2[C@@H]1O[C@H](CO)[C@@H](O)[C@@H]1O [fludarabine] + C=CCn1c(=O)c2cnc(Nc3ccc(N4CCN(C)CC4)cc3)nc2n1-c1cccc(C(C)(C)O)n1 [MK1775] (first compound 0.2 µM, partner dose 0.02 µM) | 123% | 1510% | 97.1% | 61.2% | 201% | 387% | 828% | 1420% | 504% | 140% | 320% | 214% | 105% | 241% | 120% | 252% |
| Cc1cc(Nc2cc(N3CCN(C)CC3)nc(/C=C/c3ccccc3)n2)n[nH]1 + O=S(=O)(c1ccccc1)N(CC(F)(F)F)c1ccc(C(O)(C(F)(F)F)C(F)(F)F)cc1 [T0901317] (first compound 0.04 µM, partner dose 1.4 µM) | 100% | 93.7% | 242% | 84.2% | 34.7% | 209% | 99.9% | 163% | 222% | 84.4% | 88.3% | 72% | 107% | 158% | 85.3% | 74.1% |
| CC(C)C[C@H](NC(=O)[C@H](Cc1ccccc1)NC(=O)c1cnccn1)B(O)O [Bortezomib] + COc1cc(N2CCC(N3CCN(C)CC3)CC2)ccc1Nc1ncc(Cl)c(Nc2ccccc2S(=O)(=O)C(C)C)n1 [NVP-TAE684] (first compound 0.001 µM, partner dose 0.08 µM) | 135% | 68.2% | 99.7% | 333% | 131% | 93.8% | 642% | 247% | 17.1% | 101% | 116% | 360% | 141% | 118% | 1630% | 93% |
| C[C@@H](Oc1cc(-c2cnn(C3CCNCC3)c2)cnc1N)c1c(Cl)ccc(F)c1Cl [Crizotinib] + O=S(=O)(c1ccccc1)N(CC(F)(F)F)c1ccc(C(O)(C(F)(F)F)C(F)(F)F)cc1 [T0901317] (first compound 0.2 µM, partner dose 1.4 µM) | 104% | 69.5% | 130% | 124% | 210% | 145% | 137% | 100% | 80.7% | 176% | 38.4% | 106% | 99.7% | 166% | 103% | 36.4% |
| CN1CCN(c2ccc3nc(-c4c(N)c5c(F)cccc5[nH]c4=O)[nH]c3c2)CC1 [Dovitinib] + CC(C)(C)c1cnc(CSc2cnc(NC(=O)C3CCNCC3)s2)o1 [SNS-032] (first compound 0.1 µM, partner dose 0.01 µM) | 178% | 106% | 43.5% | 22.1% | 70.8% | 126% | 79.3% | 187% | 70.2% | 324% | 54.7% | 178% | 117% | 66.2% | 95.1% | 39.7% |
| CNC(=O)c1cc(Oc2ccc(NC(=O)Nc3ccc(Cl)c(C(F)(F)F)c3)cc2)ccn1 [sorafenib] + COc1ccc2c(c1)CCC1C2CCC2(C)C(NCCCCCCN3C(=O)C=CC3=O)CCC12 [U73122] (first compound 0.4 µM, partner dose 0.4 µM) | 64.2% | 89.2% | 243% | 101% | 199% | 55% | 66.9% | 92% | 229% | 160% | 276% | 67.6% | 84% | 74.6% | 108% | 34.3% |
| CCCS(=O)(=O)Nc1ccc(F)c(C(=O)c2c[nH]c3ncc(Cl)cc23)c1F + C=CCn1c(=O)c2cnc(Nc3ccc(N4CCN(C)CC4)cc3)nc2n1-c1cccc(C(C)(C)O)n1 [MK1775] (first compound 0.08 µM, partner dose 0.02 µM) | 45.2% | 75.5% | 83.9% | 99.7% | 119% | 68.9% | 70.5% | 141% | 193% | 295% | 127% | 75.6% | 112% | 94.6% | 97.5% | 63.7% |
| CS(=O)(=O)CCNCc1ccc(-c2ccc3ncnc(Nc4ccc(OCc5cccc(F)c5)c(Cl)c4)c3c2)o1 [lapatinib] + C[C@@H]1CCN(C(=O)CC#N)C[C@@H]1N(C)c1ncnc2[nH]ccc12 [CP690550] (first compound 0.8 µM, partner dose 1 µM) | 111% | 104% | 67.9% | 104% | 72.7% | 119% | 253% | 22.7% | 67.5% | 89.9% | 96.7% | 115% | 88.3% | 121% | 93.8% | 33.8% |
| CCCS(=O)(=O)Nc1ccc(F)c(C(=O)c2c[nH]c3ncc(Cl)cc23)c1F + O=C(Nc1ccccc1)c1cc([N+](=O)[O-])ccc1Cl [GW9662] (first compound 0.08 µM, partner dose 2 µM) | 194% | 93.7% | 132% | 41.1% | 155% | 37.4% | 400% | 72.4% | 127% | 401% | 109% | 100% | 101% | 185% | 92% | 94.7% |
| CS(=O)(=O)CCNCc1ccc(-c2ccc3ncnc(Nc4ccc(OCc5cccc(F)c5)c(Cl)c4)c3c2)o1 [lapatinib] + CCCCCCCCCCCC1=C(O)C(=O)C=C(O)C1=O [Embelin] (first compound 0.8 µM, partner dose 1.2 µM) | 60.2% | 36.9% | 34.7% | 93.9% | 218% | 114% | 168% | 74.1% | 175% | 113% | 76.4% | 33.1% | 89.6% | 77.2% | 96.7% | 33.2% |

Some values from the results shown:
cleaved PARP positive nuclei fraction [7], CCCS(=O)(=O)Nc1ccc(F)c(C(=O)c2c[nH]c3ncc(Cl)cc23)c1F + CC(C)CCN1c2nc(Nc3cc(F)c(O)c(F)c3)ncc2N(C)C(=O)C1C [BID1870] (first compound 0.08 µM, partner dose 0.2 µM) is entered as 30%
cleaved PARP positive nuclei fraction [5], CN1CCN(c2ccc3nc(-c4c(N)c5c(F)cccc5[nH]c4=O)[nH]c3c2)CC1 [Dovitinib] + CC(C)CCN1c2nc(Nc3cc(F)c(O)c(F)c3)ncc2N(C)C(=O)C1C [BID1870] (first compound 0.1 µM, partner dose 0.2 µM) is entered as 54.5%
